{"source": "patent US7888315B2", "about": "“Use of aspartic proteases in cosmetics and therapeutics” (L'Oreal, priority 2002, dated 2011)", "test_system": "oxidized beta-chain of insulin", "assay": "Hydrolysis of the oxidized beta-chain of insulin followed by HPLC", "type": "biochemical", "experimental": "The oxidized beta-chain of insulin (Sigma) is used as substrate. The concentration is 50 μg in 1.5 ml of 0.1 M acetate buffer, pH 5.0. 50 μl of 12 kD SASPase (SEQ ID NO: 6) (approximately 1 mg/ml) purified by gel filtration are added so as to initialize the hydrolysis. Controls without enzyme or without substrate are used. Over time (1 h to 24 h at 37° C.), HPLCs are performed in order to follow the hydrolysis. The peaks that appear rapidly correspond to the main hydrolysis sites and those that only appear after 24 h correspond to the secondary sites. The peaks are collected after they have been fractionated, and are N-terminal sequences (EDMAN sequencing, Pasteur Institute)."}
{"molecule": "activated SASPase: truncated 12 kD activated form of the aspartic acid protease SASPase, sequence SEQ ID NO: 6 (protein, listed as Homo Sapiens) ANSMGKGYYLKGKIGKVPVRFLVDSGAQVSVVHPNLWEEVTDGDLDTLQPFENVVKVANGAEMKILGVWDTAVSLGKLKLKAQFLVANASAEEAIIGTDVLQDHNAILDFEHRTCTLKGKKFRLLPVGGSLEDEFDLE", "values": [{"measurement": "secondary hydrolysis sites in insulin beta-chain", "setting": "peaks that appear only after 24 h", "result": "L/Y and Y/L"}, {"measurement": "main hydrolysis site in insulin beta-chain", "setting": "peaks that appear rapidly, Edman sequencing", "result": "E/A"}]}
